# Data as given in PubChem BioAssay AID1224829 (NIAID, 2016)
# Test: 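Genes needed for LPS-driven NF-kappaB p65 nuclear entry in mouse macrophages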 (follow-up of hits)
# System: mouse RAW264.7 G9 macrophage reporter cells
# Knock-down reagent: single siRNA against mouse genes, 100 nM
# Time to read-out: 2 days of siRNA knock-down, then 40 min of LPS before fixing
# Treatment: LPS (Salmonella minnesota R595) at 10 ng/ml
# Read-out: 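Imaging of GFP-p65 after 40 min of LPS; nuclear over perinuclear ring intensity ratio, scaled to plate median and non-targeting control wells, given as z-score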
# Reading the numbers: p65 translocation z-score: higher = more nuclear NF-kappaB p65 after LPS
# Hit rule: 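Active means the replicate-mean z-score lies beyond plus or minus 2, in either direction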
# Meaning of the calls: active = changed p65 translocation (either direction); inactive = no clear change
# In all, the deposit lists about 3,800 reagents; shown is a random part of them. 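Calls cover raised and lowered translocation; gene median uses one vendor's three siRNAs; qiagen siRNAs acted more weakly than ambion siRNAs.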 Unmarked entries are inactive. The numbers tell different reagents against one gene apart. Further read-outs or replicates are left out here.
gene,reagent,siRNA vendor or control pool,"p65 translocation z-score, replicate mean","p65 translocation z-score, replicate 1"
Mcoln2,1,ambion single siRNA,-3.33 (active),-4.25
Mcoln2,2,ambion single siRNA,-2.62 (active),-1.82
Mcoln2,3,ambion single siRNA,-0.701,-0.323
Mcoln2,4,qiagen single siRNA,-0.0984,0.611
Mcoln2,5,qiagen single siRNA,0.177,-0.503
Mcoln2,6,qiagen single siRNA,-0.688,-1.54
Card6,1,qiagen single siRNA,0.409,-0.0258
Card6,2,qiagen single siRNA,-0.581,-0.376
Card6,3,qiagen single siRNA,-3.11 (active),-2.09
Atg3,1,ambion single siRNA,1.02,1.05
Atg3,2,ambion single siRNA,0.441,0.949
Atg3,3,ambion single siRNA,-1.39,-0.205
Atg3,4,qiagen single siRNA,1.41,0.517
Atg3,5,qiagen single siRNA,0.464,-0.491
Atg3,6,qiagen single siRNA,-2.24 (active),-2.02
Inka2,1,ambion single siRNA,-3.18 (active),-4.09
Inka2,2,ambion single siRNA,-2.19 (active),-2.05
Inka2,3,ambion single siRNA,0.633,0.633
Inka2,4,qiagen single siRNA,2.12 (active),2.4
Inka2,5,qiagen single siRNA,0.493,0.266
Inka2,6,qiagen single siRNA,1.08,-0.406
Or2z9,1,qiagen single siRNA,-1.19,-0.672
Or2z9,2,qiagen single siRNA,1.2,1.19
Or2z9,3,qiagen single siRNA,1.17,0.508
Sfpq,1,ambion single siRNA,0.316,0.153
Sfpq,2,ambion single siRNA,-1.79,-1.95
Sfpq,3,ambion single siRNA,-0.682,-0.898
Sfpq,4,qiagen single siRNA,0.565,0.712
Sfpq,5,qiagen single siRNA,-2.04 (active),-1.59
Sfpq,6,qiagen single siRNA,-0.337,-0.807
Rab32,1,ambion single siRNA,0.763,0.0235
Rab32,2,ambion single siRNA,0.818,0.0375
Rab32,3,ambion single siRNA,-3.51 (active),-3.71
Rab32,4,qiagen single siRNA,0.877,0.746
Rab32,5,qiagen single siRNA,-1.35,-1.66
Rab32,6,qiagen single siRNA,-1.92,-1.92

Records listed so far called active, once more:
gene,reagent,siRNA vendor or control pool,"p65 translocation z-score, replicate mean","p65 translocation z-score, replicate 1"
Mcoln2,1,ambion single siRNA,-3.33 (active),-4.25
Mcoln2,2,ambion single siRNA,-2.62 (active),-1.82
Card6,3,qiagen single siRNA,-3.11 (active),-2.09
Atg3,6,qiagen single siRNA,-2.24 (active),-2.02
Inka2,1,ambion single siRNA,-3.18 (active),-4.09
Inka2,2,ambion single siRNA,-2.19 (active),-2.05
Inka2,4,qiagen single siRNA,2.12 (active),2.4
Sfpq,5,qiagen single siRNA,-2.04 (active),-1.59
Rab32,3,ambion single siRNA,-3.51 (active),-3.71
